# Reference: patent US12502362B2, “Inhibitors of nucleotidyltransferase superfamily enzymes as antibiotics” (priority 2017, dated 2025)
# Some entries share one result that the patent states for a list of compounds. At least one structure is not confirmed: it was looked up by name or label, or the drawing left a doubt.
# Test system: HepG2-derived hepatoblastoma cell line (HEPDES19)
# Experiment: Cytotoxicity assay (CC50), MTS
# Type: cell-based, human
# Details: HEPDES19 cells
# Procedure: To further characterize the compounds, the minimal inhibitory concentration (MIC80) were determined for selected compounds. MIC80 is defined as the compound concentration at which ≥80% bacterial growth is inhibited compare to untreated controls. Meanwhile, for the selected compounds, cytotoxicity assays (CC50) were performed on a HepG2-derived hepatoblastoma cell line (HEPDES19). […] For CC50 evaluation, soluble tetrazolium dye (MTS) was used to measure mitochondrial toxicity in a human hepatoblastoma cell line (18). The bacteria (E. coli, S. saprophyticus and A. baumannii) used in MIC80 measurements were the same as that in the primary screening, but for Staphylococcus, S. aureus is used primarily because it is a common pathogen in Staphylococcaeae family, while S. saprophyticus is part of the normal human flora.
smiles,measurement,value
O=C(Sc1cccccc1=O)c1ccc(C(F)(F)F)cc1 [Compound 682],CC50,> 50 µM
CC(=O)c1c(C)cc(O)c(=O)c(O)c1-c1ccc2ccccc2c1 [Compound 332],CC50,< 50 µM
CCn1cc(C(=O)O)c(=O)c2cnc(N3CCN(C(=O)NC)CC3)nc21 [Compound 322],CC50,> 50 µM
CC(C)C(CO)n1cc(C(=O)O)c(=O)c2cc(Cc3cccc(Cl)c3F)c(F)cc21 (stereo not shown) [Compound 75],CC50,< 50 µM
Cc1ccc(S(=O)(=O)Oc2cc(C(C)C)cccc2=O)cc1 [Compound 688],CC50,< 50 µM
O=c1cccccc1O [Compound 53],CC50,> 50 µM
O=C(Cc1ccccc1)Sc1cccccc1=O [Compound 680],CC50,> 50 µM
